Read-outs that look alike come from different tables or passages of the source. Results are given in words; binding and its absence hold for the method and conditions named. In cells and extracts the contact can be indirect. These calls come from enrichment with a bait or labelling near it, and not all partners need be listed. For some assays here: A no says only that the protein was not detected with the bait.

The chains behind the UniProt entries cited, without tags or fusion partners. Where a name states a change or a piece, a line headed by the entry shows the natural chain unless it says otherwise.
UniProt P90916: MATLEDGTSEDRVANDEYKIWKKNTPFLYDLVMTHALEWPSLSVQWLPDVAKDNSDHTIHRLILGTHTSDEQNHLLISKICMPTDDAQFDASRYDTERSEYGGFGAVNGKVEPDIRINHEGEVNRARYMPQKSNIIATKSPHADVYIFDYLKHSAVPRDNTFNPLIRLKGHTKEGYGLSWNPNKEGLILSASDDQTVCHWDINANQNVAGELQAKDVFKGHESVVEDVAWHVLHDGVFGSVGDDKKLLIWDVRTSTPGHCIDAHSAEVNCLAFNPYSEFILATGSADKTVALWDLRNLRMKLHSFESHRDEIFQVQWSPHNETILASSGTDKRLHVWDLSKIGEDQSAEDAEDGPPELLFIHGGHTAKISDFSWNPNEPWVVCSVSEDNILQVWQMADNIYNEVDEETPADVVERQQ
UniProt Q22516: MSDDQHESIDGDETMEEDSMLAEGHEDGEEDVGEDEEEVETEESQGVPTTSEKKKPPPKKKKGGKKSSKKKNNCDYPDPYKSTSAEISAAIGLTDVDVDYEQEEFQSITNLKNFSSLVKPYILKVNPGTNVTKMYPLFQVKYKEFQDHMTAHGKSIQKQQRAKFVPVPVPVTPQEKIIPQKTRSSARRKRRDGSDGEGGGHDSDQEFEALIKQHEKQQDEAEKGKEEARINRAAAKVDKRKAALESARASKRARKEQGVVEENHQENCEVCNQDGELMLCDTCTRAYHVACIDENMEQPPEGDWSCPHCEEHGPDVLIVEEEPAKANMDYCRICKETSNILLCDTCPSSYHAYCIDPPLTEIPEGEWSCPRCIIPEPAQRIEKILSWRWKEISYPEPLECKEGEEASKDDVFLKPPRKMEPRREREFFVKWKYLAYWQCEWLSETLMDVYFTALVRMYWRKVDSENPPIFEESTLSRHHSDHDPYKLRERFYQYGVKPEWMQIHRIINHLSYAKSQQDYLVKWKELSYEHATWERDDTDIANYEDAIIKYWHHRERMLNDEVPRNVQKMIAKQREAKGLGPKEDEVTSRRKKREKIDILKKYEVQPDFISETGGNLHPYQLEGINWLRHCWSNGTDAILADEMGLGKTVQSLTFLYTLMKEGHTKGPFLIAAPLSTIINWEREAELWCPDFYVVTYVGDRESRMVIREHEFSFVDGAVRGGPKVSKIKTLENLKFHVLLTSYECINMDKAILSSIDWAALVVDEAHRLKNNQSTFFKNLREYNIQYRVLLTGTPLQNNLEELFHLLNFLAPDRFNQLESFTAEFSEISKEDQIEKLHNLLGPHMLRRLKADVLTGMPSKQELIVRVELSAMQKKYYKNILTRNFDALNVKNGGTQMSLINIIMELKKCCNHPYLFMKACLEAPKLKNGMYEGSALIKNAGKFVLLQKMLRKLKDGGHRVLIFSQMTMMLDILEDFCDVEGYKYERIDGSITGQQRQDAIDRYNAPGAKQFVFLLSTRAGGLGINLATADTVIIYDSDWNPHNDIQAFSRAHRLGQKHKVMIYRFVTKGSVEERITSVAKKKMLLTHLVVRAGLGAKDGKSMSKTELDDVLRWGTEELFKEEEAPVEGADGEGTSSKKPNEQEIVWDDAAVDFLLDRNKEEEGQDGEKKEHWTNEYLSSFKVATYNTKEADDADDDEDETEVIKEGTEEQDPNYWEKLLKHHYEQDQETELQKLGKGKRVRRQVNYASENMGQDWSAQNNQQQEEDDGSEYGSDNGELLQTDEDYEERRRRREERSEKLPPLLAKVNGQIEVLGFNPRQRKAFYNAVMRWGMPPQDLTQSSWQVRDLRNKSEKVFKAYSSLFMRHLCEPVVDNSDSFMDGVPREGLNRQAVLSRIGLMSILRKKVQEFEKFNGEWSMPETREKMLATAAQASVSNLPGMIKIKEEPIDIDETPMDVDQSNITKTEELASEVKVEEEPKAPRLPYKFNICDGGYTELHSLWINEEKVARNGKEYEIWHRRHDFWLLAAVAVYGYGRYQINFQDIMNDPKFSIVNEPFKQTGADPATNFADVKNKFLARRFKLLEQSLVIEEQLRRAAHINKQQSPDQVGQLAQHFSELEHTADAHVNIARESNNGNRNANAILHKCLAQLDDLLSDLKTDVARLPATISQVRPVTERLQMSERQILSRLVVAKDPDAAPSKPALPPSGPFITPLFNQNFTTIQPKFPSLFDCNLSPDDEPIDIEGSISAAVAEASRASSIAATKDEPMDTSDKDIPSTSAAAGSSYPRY
UniProt O17695: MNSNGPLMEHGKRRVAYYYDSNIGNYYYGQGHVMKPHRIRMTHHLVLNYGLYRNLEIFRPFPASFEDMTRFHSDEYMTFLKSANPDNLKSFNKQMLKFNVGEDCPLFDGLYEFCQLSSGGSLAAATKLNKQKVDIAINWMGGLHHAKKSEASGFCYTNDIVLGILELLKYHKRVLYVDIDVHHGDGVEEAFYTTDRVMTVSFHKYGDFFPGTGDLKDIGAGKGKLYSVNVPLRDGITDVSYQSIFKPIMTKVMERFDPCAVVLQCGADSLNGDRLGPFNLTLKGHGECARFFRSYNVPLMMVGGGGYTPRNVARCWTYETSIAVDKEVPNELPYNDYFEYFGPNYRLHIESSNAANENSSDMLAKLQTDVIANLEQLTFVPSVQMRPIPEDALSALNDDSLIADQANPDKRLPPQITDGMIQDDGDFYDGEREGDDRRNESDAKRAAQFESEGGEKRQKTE
UniProt P41877: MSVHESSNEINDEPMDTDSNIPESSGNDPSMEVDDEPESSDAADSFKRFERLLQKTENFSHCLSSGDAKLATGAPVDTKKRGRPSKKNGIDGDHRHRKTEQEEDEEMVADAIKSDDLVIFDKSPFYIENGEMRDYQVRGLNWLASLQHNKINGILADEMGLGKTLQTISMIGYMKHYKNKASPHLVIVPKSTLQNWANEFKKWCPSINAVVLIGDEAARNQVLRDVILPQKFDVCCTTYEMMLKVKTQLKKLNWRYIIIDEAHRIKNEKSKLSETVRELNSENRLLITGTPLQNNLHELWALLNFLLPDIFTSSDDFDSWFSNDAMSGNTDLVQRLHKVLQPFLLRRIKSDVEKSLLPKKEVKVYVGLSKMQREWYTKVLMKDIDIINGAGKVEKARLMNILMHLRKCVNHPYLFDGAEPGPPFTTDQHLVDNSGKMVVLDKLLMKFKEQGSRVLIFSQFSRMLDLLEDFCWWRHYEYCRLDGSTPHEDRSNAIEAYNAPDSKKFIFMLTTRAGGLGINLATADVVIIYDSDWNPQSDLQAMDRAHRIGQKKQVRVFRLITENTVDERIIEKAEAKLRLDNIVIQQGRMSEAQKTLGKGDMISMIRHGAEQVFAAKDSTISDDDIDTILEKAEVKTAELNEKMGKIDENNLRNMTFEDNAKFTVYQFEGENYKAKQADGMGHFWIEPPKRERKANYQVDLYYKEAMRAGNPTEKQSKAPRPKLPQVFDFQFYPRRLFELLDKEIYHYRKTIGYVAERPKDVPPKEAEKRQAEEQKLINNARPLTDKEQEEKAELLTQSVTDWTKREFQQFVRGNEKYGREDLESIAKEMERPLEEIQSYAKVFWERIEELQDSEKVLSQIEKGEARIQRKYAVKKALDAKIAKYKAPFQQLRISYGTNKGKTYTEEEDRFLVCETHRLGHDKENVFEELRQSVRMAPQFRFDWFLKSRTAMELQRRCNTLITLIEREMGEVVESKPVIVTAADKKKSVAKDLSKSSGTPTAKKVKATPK
UniProt Q23482: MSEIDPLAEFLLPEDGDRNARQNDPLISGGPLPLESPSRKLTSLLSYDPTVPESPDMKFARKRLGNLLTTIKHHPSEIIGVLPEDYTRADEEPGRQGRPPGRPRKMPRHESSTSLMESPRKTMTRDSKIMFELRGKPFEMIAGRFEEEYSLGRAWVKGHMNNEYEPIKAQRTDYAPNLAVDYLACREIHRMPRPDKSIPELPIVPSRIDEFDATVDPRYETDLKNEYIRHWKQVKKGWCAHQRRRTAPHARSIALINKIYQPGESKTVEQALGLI
UniProt Q6BER5: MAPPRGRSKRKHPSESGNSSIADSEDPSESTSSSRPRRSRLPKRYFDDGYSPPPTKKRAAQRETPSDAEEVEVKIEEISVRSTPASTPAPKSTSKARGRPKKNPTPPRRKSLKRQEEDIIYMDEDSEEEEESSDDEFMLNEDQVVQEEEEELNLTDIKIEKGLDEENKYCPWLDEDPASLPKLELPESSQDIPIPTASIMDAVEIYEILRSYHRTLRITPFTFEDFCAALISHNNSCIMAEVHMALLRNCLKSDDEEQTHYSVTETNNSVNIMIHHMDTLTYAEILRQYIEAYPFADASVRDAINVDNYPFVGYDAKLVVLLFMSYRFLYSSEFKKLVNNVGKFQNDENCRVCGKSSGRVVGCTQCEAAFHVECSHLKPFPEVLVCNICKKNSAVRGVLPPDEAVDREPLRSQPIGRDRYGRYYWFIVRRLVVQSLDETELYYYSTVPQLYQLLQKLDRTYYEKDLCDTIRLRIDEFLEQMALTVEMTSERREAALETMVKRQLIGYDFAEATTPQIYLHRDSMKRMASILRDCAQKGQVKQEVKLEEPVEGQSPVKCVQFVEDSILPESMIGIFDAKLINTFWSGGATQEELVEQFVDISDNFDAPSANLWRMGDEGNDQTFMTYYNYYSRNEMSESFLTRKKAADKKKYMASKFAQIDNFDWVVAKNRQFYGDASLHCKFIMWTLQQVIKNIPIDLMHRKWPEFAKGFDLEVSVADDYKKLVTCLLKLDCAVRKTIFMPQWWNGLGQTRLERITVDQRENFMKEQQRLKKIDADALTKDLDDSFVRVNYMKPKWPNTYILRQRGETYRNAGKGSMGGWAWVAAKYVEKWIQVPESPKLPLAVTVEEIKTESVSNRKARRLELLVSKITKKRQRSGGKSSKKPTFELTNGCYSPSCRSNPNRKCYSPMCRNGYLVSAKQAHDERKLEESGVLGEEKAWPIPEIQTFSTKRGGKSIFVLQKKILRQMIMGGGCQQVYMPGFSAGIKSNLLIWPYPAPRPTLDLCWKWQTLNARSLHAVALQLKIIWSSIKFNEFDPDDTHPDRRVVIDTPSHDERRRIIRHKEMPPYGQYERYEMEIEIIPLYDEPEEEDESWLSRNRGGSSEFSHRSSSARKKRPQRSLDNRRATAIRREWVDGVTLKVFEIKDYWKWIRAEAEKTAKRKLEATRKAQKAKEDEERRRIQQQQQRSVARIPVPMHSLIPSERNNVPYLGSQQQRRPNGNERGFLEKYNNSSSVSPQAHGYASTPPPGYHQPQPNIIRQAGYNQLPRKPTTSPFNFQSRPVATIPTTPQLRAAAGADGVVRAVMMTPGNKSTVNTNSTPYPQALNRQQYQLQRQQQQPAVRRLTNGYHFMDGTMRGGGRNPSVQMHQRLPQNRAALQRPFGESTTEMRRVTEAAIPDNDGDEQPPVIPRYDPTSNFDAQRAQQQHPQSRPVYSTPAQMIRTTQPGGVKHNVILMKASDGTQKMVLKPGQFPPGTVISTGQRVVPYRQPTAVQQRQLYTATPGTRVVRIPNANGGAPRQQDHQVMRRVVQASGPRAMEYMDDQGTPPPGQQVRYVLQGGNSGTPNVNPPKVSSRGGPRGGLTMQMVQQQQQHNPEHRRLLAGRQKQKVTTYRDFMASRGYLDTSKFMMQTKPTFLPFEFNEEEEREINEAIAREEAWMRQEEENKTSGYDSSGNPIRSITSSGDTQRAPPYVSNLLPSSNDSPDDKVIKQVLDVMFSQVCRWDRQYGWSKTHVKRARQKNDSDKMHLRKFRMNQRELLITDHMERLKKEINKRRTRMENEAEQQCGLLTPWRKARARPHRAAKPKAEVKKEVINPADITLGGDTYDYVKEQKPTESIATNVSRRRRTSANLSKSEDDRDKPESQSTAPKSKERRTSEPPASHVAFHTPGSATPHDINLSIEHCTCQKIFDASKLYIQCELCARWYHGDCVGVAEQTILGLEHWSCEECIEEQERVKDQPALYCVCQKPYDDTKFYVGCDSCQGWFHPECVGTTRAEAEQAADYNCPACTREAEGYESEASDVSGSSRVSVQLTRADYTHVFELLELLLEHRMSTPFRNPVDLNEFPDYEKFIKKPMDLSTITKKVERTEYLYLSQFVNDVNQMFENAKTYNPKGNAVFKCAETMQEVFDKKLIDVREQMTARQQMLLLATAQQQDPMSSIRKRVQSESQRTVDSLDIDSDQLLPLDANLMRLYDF

Among the data in PMC2965115 are binding values, retold here.

The target in assay [1] is LIN-53::TAP (C. elegans) (UniProt P90916). In words: affinity purification with mass spectrometry; tandem affinity purification of LIN-53::TAP from worm extract in PEB buffer (50 mM HEPES pH 7.2, 150 mM KCl, 20% glycerol, 0.3% NP-40); eluates identified by LC/MS/MS.
For assay [2] the target is unchanged. The description is as above. The source holds these as a separate data set.

For CHD-3 (from UniProt Q22516 1-1787), in the assay with LIN-53::TAP (C. elegans) [1], the binding result was “binds”.

With HDA-1 (from UniProt O17695 1-461), the binding result with LIN-53::TAP (C. elegans) [1] is “binds”.

Regarding ISW-1 (from UniProt P41877 1-1009), in the assay with LIN-53::TAP (C. elegans) [1], the binding entry is listed as “binds”.

LET-418 (from UniProt G5EBZ4 1-1829): the binding result with LIN-53::TAP (C. elegans) [1] is on record as “binds”.

On to LIN-37 (from UniProt Q23482), for which the binding result with LIN-53::TAP (C. elegans) [1] is “binds”.

Take NURF-1 (from UniProt Q6BER5 1-2194): in the assay with LIN-53::TAP (C. elegans) [1], the binding entry is recorded as “binds”.

B1: CPSF-1 (protein, UniProt Q9N4C2 1-1454)
chain: MYGYLRETDDSTAINFSAYGKFLPGENTGFQLLTIGAKFIRIFRVNPYVLKEPGEDNEEWQQKTKLECMFSCRLLNKCHSIAVARVPQLPDQDSILMTFDDAKLSIVSINEKERNMQTISLHAFENEYLRDGFINHFQPPLVRSDPSNRCAACLVYGKHIAILPFHENSKRIHSYVIPLKQIDPRLDNIADMVFLDGYYEPTILFLYEPIQTTPGRACVRYDTMCIMGVSVNIVDRQFAVVWQTANLPMDCSQLLPIPKPLGGALVFGSNTVVYLNQAVPPCGLVLNSCYDGFTKFPLKDLKHLKMTLDCSTSVYMEDGRIAVGSRDGDLFLLRLMTSSGGGTVKSLEFSKVYETSIAYSLTVCAPGHLFVGSRLGDSQLLEYTLLKTTRDCAVKRLKIDNKDPAAAEIELDEDDMELYGGAIEEQQNDDDEQIDESLQFRELDRLRNVGPVKSMCVGRPNYMSNDLVDAKRRDPVFDLVTASGHGKNGALCVHQRSLRPEIITSSLLEGAEQLWAVGRKENESHKYLIVSRVRSTLILELGEELVELEEQLFVTGEPTVAAGELSQGALAVQVTSTCIALVTDGQQMQEVHIDSNFPVIQASIVDPYVALLTQNGRLLLYELVMEPYVQLREVDISATSFATWHATAQNLTQLTSISIYADASEIMKFAAAEKSMGGGGGGDGEVSTAENAMMKKEQHEEAILLHGEDDDFLYGDEDETIMEQNFPVENGEATIKQSNTRKRKRLGHDAIQSSRGGEQSDAIDPTRTFSSISHWLIVSHENGRLSIHSLPEMEVVYQIGRFSNVPELLVDLTVEEEEKERKAKAQQAAKEASVPTDEAEQLNTEMKQLCERVLEAQIVGMGINQAHPILMAIVDEQVVLYEMFSSSNPIPGHLGISFRKLPHFICLRTSSHLNSDGKRAPFEMKINNGKRFSLIHPFERVSSVNNGVMIVGAVPTLLVYGAWGGMQTHQMTVDGPIKAFTPFNNENVLHGIVYMTQHKSELRIARMHPDFDYEMPYPVKKIEVGRTIHHVRYLMNSDVYAVVSSIPKPSNKIWVVMNDDKQEEIHEKDENFVLPAPPKYTLNLFSSQDWAAVPNTEISFEDMEAVTACEDVALKSESTISGLETLLAMGTVNNYGEEVLVRGRIILCEVIEVVPEPDQPTSNRKIKVLFDKEQKGPVTGLCAINGLLLCGMGQKVFIWQFKDNDLMGISFLDMHYYVYQLHSLRTIAIACDARESMSLIRFQEDNKAMSIASRDDRKCAQPPMASQLVVDGAHVGFLLSDETGNITMFNYAPEAPESNGGERLTVRAAINIGTNINAFVRLRGHTSLLQLNNEDEKEAIEQRMTTVFASLDGSFGFVRPLTEKSYRRLHFLQTFIGSVTPQIAGLHIKGSRSAKPSQPIVNGRNARNLIDGDVVEQYLHLSLYDKTDLARRLGVGRYHIIDDLMQLRRMAFYY
Turning to B1, the binding result with LIN-53::TAP (C. elegans) [2] was “binds”.

B2: RBA-1 (protein, UniProt P90917 1-412)
chain: MSEAESCEETSKEHRIWKKNVPYLYDTVVTKEVEWPSLSVQWMPDVTKTENSDSSMHRMIHGTHTCGGVQNHLMISKFTITTDTPEFDDAKWDSEREEFGGYGEGSAAKWDTEIKINHPGEVHRARYMPHNPFIIASRGPSDDVYIFDYTKHPSEPKDTKFRPQLRLKGHEGEGYGMSWSNTREGHLLTAGDDGMICHWDINANQTISGQIVPQSKFKGHSSNAEDVSFHALHNFVFGSVGDDRKLNLWDLRQSKPQLTAVGHTAEVNCITFNPFSEYILATGSVDKTVALWDMRNMRKKMYTLKHHNDEIFQVSFSPHYETVLASSGSDDRVIVWDISKIQDPSSSSAASSDSVPPEVIFIHAGHTGKVADFSWNPNRPWTICSSDEFNALQVWEVSNSLVSSEKWETEMI
As to B2, the binding entry in the assay with LIN-53::TAP (C. elegans) [2] is “no binding”.

B3: EGL-27 (protein, UniProt Q09228 1-1129)
chain: MSRFDSQCSSEDVNKEDECVPSSSEDSQDGVSSPMENDDEPEFSQKHYDIEPCYYSLTGKSDRNCRGIVYRYRQDSDLKGFQSHDGTLYRLRDSVFVEVSQNEPYVIAAICGFKYTKRDHVVVKLTRYFRADDIPEISLNLMKQERAELEINPHLCPQSLNRELFNSELQITQPVSCLRGKCIVEYVKDVRHARTVADFSLDNDTFFFCLHYNQDSTKLASTHYAIRVGTSFQATLPPMAECSVGDDSDRDELLYRPNSIESGEEEDYIKLARCYRTYTLSGNHMLDSQKNARSLQVSDLLMDEAIIQLHRSGYKIDDALSELNANDIILTTDVDNMTQDDAKKFAKGIKQLGKNFSRIHRELLPHHSREQLVSYYYLWKKTPEATKPKQAARRVNPTSIKRPTKEKVKASRPTSTEYLDFDSASESDVENNGPSGRACHHCYGAESKDWHHANGLLLCTDCRLHYKKYGQLRQIANRPSQVPACLFKRSNSDEEESGVRTRAGKKEQRRRTPSSMSETPDRRSPSTVSNGAPNLTAEETPTKKLNGSVKRAPKRPLHNGVINNVEKSNSSEEPASPTTPPPTLTNGLTNGHGPESSTPNGETISKRMKVEPSYDDDDDEEEGKMTIDEGDDDPMPVLNGFKKEESVEEIKLELNGTIKKENGVETDPTTPTCSMEAENEVCETPAVVSVEIRDETNGETNSDLKDDENVEPDSPEDTFELGSNVEFETKNAMFVRSIVRSCGPRCARTDLIFKIKVGGVWEKSIKEKEERKKVHLQNQRIQDSEKVAIQQNQIKKEQQQSQPTPQQIHQQQAQQNAQHLQQLQQAVMLGHLPPEVLRQMMPPQFGVDPTAILMQQMMAGQQSQGVNAAFQHQMALQQQLEAHQVQFQLMMAHQHQQKMIAEQQQQQRHAAAQQLREREQREQRERERERQHQQQAQQALHQQQQQHAAAAANQLNPAMMQMMALMANSAASQQDIARLMEMAAQQQQQQQQAAQAQAQRDQERERREREAREREAAREREREQAAREAAARDQAAREHAQAVQAAAAAAQQAQALTPDMQHMHLLQQLMLNPALMMQLQQAQAQQQQQQPQVTNPLQMLQHGMAAQSANQAEMMRRIHPEPAMRPQHQ
With B3, the binding entry with LIN-53::TAP (C. elegans) [2] was “no binding”.

B4: LIN-9 (protein, UniProt P30630 1-644)
chain: MSSAVRSPRKKAASDTSDPDRTSSPYSLRETSKVPSRYRNEELYLSPSRSIKRTGSPKKSPAKRLNGGRDSPSVNSLTRNSSLTMLAKAALDYESSSCALEYIFQPKEERRPPRRALALSPPPAPSNDLLAKDLEMIEMHQNLVAGLDDLDNPANMTNEAVEHRDTQSFFNMFSTDQERSAMMKQFKTYKNQTSEDVSTFMRANIKKLYNLLRYKKARQWVMCEFFYSAIDEQIFKEENEFATIIRESFPNLKNWNLTRIEWRSIRKLLGKPRRCSKVFFEEERMYLEEKRMKIRSVYEGSYLNDPSIDLKDLPAKLPRPMVVGNRVFARIRNPYDGIYSGIIDAVIPKGFRIIFDKPDIPPTLVSDTEILLDGKLDLLSIAYFIEQANSKLPSGVRPFVAAVRDSSHPHLVRDVLVSRKIERSGGPLMGPNDERLNGKNAEMVGNFPLKFLVNLVKLTKLIDIKKGLIRQLNELNADAEIQNMTSDKYSKAFQEKYAKTIIDLEHVNQNIDINMNGIQDHHMYFSSNDISTSNMKPEAVRQMCSQQAGRFVEHCNQGLNVENVHALTLIQSLTAVLLQVRTMGTQKISAVDLQSLGDAISEIRTAIHPRNVAFFQDYVEVHMKQFHTIMLESGALAGTVSNRK
Turning to B4, in the assay with LIN-53::TAP (C. elegans) [2], the binding result is listed as “binds”.

B5: LIN-59 (protein, UniProt O44757 1-1312)
chain: MHGAGEQQQRYRYNARSDEQHHHPSTSSHQYQQQGARQMHQMHPIQATLMCTPTTTSAAASTSSSGGSNSSGGSGGHRQQGNILRIGNSIKIGDNILEPAGTLVFSQADGTPWTGQRIVVNGSTHAVVKANLFPIGTTPPVLNMQSNQNWYMNQPSGTVPMSSNAPATTSSATPDSGIQSVPTSPPSPSYAMMNDVDIGDHDDEEDDDGPADFTDMPLLKPVDEDDDCYDVPCTSEGPPPNNSNPAITTIPSSCSTPAPPKESLPTGMNVEEWGSFLIASNMDREEIVRRLMAHDPEMAKAIAMRIRELSAEESKKKKDMEAEVSSTTPTTPRARGTRTRNKCATRSTNSPDVTTSNLPEEPSTSTMGLVKENEDVEKVEGKRRGRKPKKRRGFHKESFEDLESDAKKSKAEQHEDHLPEASCSSRPESVIPPPVDPIQFRLKVREMMERKLEQLTQKMSEDMTELRLSHLTSSKMVNGERGKRRESFLRQLNEQSKKLRKGGMLGRKRLRMFMTESDILEENKDNIKKEVKEESTPPPTKLRGRLPSRRTREPSEIVNPEPVEKKFNGEYFEITKSVPSSDDIIPLWMAPSLTCGCTKGACTSDMDCLNRALRVQCSSDCSVPYCSNRRFWKEDCGNKLCVSNGPRSKRVLKTKIARRAGEFLCEYAGEVITREQAQEKFAQDRDPRIIAIAAHLFVDATKRSNIARFIKHSCKPNSRLEVWSVNGFYRAGVFALSDLNPNAEITVDKSDLLPFDMACNCGATECKRVIRGVRWRCADPNEKIVTRRFVIRNRRKTIERSSHSGLPAILQTPMDENSSIRLKMKQVLAAFAFRVRKIDGSMSRTMLPHYTLIIKFLKTKGNNPNPVEFVSLFRKWLEAIDDDDLERAFVAIESHYMSSSILSSSLQSKKAKDNAPRARALSTSCPSPVPSKRGDADLSYLESLYPIGSYDPDDAWESYSTNKKGNAVRCICGALDEEGTMVQCDTCHFWLHVDCCQYVVRSNEKAQKSKNPPSDDGEYICDFCTNKQNGLRPSADVKLTEQPDVRFENCDYYRSLINRRGIQVVLNETVYVNRVLPEDHKAMLRNLREEKKGSKQKDTNKYRFPKAATSPLPIEKVDRKNARIFRVERLFVCPGNNRFVFGSFYAWPHETYADAGRVFSKKEVFATPYYETLPLDEVIGRCLVLDTATWCKGRPKVPKFKEDDVFLCEMQIGKTQRVFEKVPPKNRYPINTNSYVFTEFTHPKKVVRDFRPYDPSNPSPKPPKTSSIPSTSSIDPPQSSSDGLPEVDTKKLSKRHIQRVLKRLVKNGSRRS
On to B5, for which, in the assay with LIN-53::TAP (C. elegans) [2], the binding result was “binds”.
